The exact form of at least one protein or probe is not confirmed. A negative result means that nothing was seen under these conditions.
Target: HuR full-length (FL-HuR, rHuR) (UniProt Q15717)
Experiment: EMSA
Settings: EMSA: 20 mM Tris-HCl pH 7.8, 150 mM KCl, 2 mM MgCl2, 0.1% Triton X-100, 0.5 mM DTT, heparin 5 mg/ml, BSA 1 mg/ml, 10% glycerol, on ice 15 min, 6% native PAGE, 0.5x TBE, recombinant protein, protein details: His, label: 32P end label

Chains of the proteins cited; added tags and fusions are not shown.
UniProt Q15717, whole entry: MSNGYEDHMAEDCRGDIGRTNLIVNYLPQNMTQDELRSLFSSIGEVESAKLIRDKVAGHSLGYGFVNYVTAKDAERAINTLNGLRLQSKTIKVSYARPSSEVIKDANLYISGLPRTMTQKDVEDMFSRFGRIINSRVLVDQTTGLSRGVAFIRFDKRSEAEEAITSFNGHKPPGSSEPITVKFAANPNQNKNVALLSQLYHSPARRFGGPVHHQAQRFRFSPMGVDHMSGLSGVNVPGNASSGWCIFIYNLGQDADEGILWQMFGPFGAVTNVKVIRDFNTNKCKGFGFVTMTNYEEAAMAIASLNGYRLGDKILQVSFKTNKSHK

Q: With “AAAUUCAAACACCAUUGUCACACUCCACCAGAUUAA [miR-122* (miR-122 antisense RNA)]” as the sequence, how does the Kd read?
A: 200 nM

Q: Does “UGGAGUGUGACAAUGGUGUUUG / AAAUUCAAACACCAUUGUCACACUCCACCAGAUUAA [miR-122/miR-122* hybrid]” bind (excess miR-122* abolishes miR-122 binding)?
A: no binding
